Measured values as given in PMC4072592.
No constants are given. Whether binding was seen depends on the method and setting. Binding seen in cells or lysates may run through a third protein. Some entries that bind do so weakly or less than the wild type. Values belong to the substance of their own block, whether it stands above or below them.

Amino acid sequences for entries named in this document (tags omitted). A change or cut given only in a name is not applied to a line headed by its entry.
UniProt Q9V535: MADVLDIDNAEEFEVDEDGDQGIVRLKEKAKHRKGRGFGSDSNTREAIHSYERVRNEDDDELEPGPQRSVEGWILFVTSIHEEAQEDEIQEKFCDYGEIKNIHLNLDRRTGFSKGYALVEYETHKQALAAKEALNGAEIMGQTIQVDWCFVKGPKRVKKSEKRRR
UniProt P49028: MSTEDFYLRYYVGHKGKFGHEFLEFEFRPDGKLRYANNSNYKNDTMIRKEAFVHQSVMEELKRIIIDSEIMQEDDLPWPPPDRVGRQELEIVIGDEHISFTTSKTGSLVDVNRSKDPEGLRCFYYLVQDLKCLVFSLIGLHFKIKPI
UniProt Q9VHS8: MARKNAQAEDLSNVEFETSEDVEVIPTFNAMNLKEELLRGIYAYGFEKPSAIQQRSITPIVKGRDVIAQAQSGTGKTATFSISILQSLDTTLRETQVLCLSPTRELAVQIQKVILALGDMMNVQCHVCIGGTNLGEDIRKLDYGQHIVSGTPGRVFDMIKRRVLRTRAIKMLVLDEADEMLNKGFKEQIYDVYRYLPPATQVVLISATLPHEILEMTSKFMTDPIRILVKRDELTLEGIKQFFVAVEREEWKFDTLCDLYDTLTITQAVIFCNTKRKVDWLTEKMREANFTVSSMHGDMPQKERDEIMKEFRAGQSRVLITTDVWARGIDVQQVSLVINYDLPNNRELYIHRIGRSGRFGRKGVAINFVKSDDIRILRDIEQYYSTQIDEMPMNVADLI
UniProt P82804: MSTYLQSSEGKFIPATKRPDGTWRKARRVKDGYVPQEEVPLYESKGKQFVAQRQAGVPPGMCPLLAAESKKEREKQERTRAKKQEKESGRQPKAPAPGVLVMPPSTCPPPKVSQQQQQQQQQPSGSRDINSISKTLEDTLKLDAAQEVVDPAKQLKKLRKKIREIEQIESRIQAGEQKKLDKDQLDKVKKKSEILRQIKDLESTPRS

Legend:
[1] = molecular target: Y14-Mago heterodimer, endogenous in ovaries (Drosophila (endogenous in fly ovaries)) (UniProt Q9V535+P49028); assay: co-IP; anti-eIF4AIII antibody (rabbit IgG as control) on cytoplasmic ovarian extracts of wild-type, osk^A87/+, and osk^A87/+ flies over-expressing FLAG- or GFP-tagged FL-PYM; western blot
[2] = molecular target: HA-eIF4AIII (S2 cells) (Drosophila) (UniProt Q9VHS8); assay: co-IP; anti-HA beads on extracts of S2 cells co-expressing HA-eIF4AIII and GFP or GFP-tagged PYM proteins; bound fractions probed with anti-Mago
[3] = molecular target: FL-PYM-GFP (S2 cells) (Drosophila) (UniProt P82804); assay: co-IP; GFP-Trap beads on extracts of S2 cells co-expressing HA-eIF4AIII and GFP or GFP-tagged PYM proteins; bound fractions probed with anti-Mago
[4] = molecular target: FL-PYM-GFP (S2 cells) (Drosophila) (UniProt P82804); assay: co-IP; GFP-Trap beads on cytoplasmic extracts of S2 cells expressing GFP or GFP-tagged FL-, ΔC- or N-PYM, native conditions; blots of Mago and Y14 quantified by densitometry, coIP efficiency as percent of the GFP enrichment
[5] = molecular target: FLAG-FL-PYM (transgene, ovaries) (Drosophila) (UniProt P82804); assay: co-IP; mouse anti-FLAG antibody on cytoplasmic extracts of osk^A87/+ ovaries expressing FLAG-tagged PYM proteins, 4°C; western blot
[6] = molecular target: Drosophila PYM (DmPYM), endogenous (Drosophila (endogenous in fly ovaries)) (UniProt P82804); assay: co-IP; anti-PYM antibody (anti-HA as unrelated antibody) on cytoplasmic extract of wild-type ovaries, 4°C, with or without RNase; washes with 300 mM KCl, 0.2% NP-40; western blot
[7] = molecular target: eIF4AIII, endogenous in ovaries (Drosophila (endogenous in fly ovaries)) (UniProt Q9VHS8); assay: co-IP; anti-eIF4AIII antibody (rabbit IgG as control) on cytoplasmic ovarian extracts of wild-type, osk^A87/+, and osk^A87/+ flies over-expressing FLAG- or GFP-tagged FL-PYM; western blot

- binding [1]: binds
Substance: FL-PYM-GFP (transgene, ovaries) (from UniProt P82804 1-207)

- binding [2]: binds
- binding [3]: binds
- binding [4]: binds
Substance: Y14-Mago heterodimer, endogenous in S2 cells (from UniProt Q9V535 1-165; P49028 1-147) (complex)

- binding [5]: binds
- binding [6]: binds
- binding [7]: binds
Substance: Y14-Mago heterodimer, endogenous in ovaries (from UniProt Q9V535 1-165; P49028 1-147) (complex)

- binding [5]: no binding
- binding [6]: no binding
Substance: eIF4AIII, endogenous in ovaries (from UniProt Q9VHS8 1-399)
